Key:
[1] = test system: MES (electroshock) seizure in rats; experiment: Anti-epilepsy activity, MES test in rats; assay type: in vivo, SD rats
Experimental: (§1) In the MES test (Ref., G. Villetti et al. Neuropharmacology 40(2001) 866-878), an electrical stimulus (mice: 50 mA, 60 Hz, 0.2 sec, and rats: 150 mA, 60 Hz, 0.2 sec in the test animal) supplied by an 11A Shocker (IITC Life Science Company) was delivered through corneal electrodes. All mice or rats assigned to any electroshock at peak time were treated with each test compound sample which was dissolved in 20% tween 80 prepared by saline solvent applied orally before the test. […] Three doses of the test sample were administered orally to 9-18 animals (3-6 mice per dose) for evaluating the respective doses at which 50% of the animals were protected from seizure (ED50). The ED50 value (median effective dose) was calculated by Litchfield and Wicoxon log-probit method which is a dose-response relationship. Experimental animals, male ICR mice and male SD rats, were purchased from OrientBio, Samtako, or Nara Biotech, Korea, and housed in cages (4-5 mice or 3 rats per cage) for 4-5 days. The range of mice body weight was between 19 and 25 grams and range of rats body weight was between 100 and 130 grams.

[2] = test system: MES (electroshock) seizure in mice; experiment: Anti-epilepsy activity, MES test in mouse; assay type: in vivo, ICR mice
Experimental: as §1

[3] = test system: PTZ (Pentylenetetrazol)-induced clonic seizure in mice; experiment: Anti-epilepsy activity, scPTZ test in mouse; assay type: in vivo, ICR mice
Source text: (§2) In this experiment, each test compound sample was formulated as described in Biological Experimental Example 1, and administered intraperitoneally to the test animals (mice; ICR or Rat; SD); Experimental animals, male ICR mice and male SD rats, were purchased from OrientBio or Nara biotech, Korea, and housed 4-5 mice per a cage for 4-5 days. The range of mice body weight was used between 19 and 26 grams and range of rats body weight was used between 100 and 130 grams. After Peak time (0.5, 1, 2 and 4 hr) from the administration, PTZ (Pentylenetetrazol) was administered subcutaneously in the concentration capable of inducing 97% intermittent convulsions (mice: 100-110 mg/kg?bw, 10 μl/g, or rats: 90-110 mg/kg?bw, 2 μl/g). If clonic seizure was not observed for at least 30 minutes in the PTZ administered animal, it can be considered that the test compound has anti-epilepsy activity. The median effective dose (ED50) is determined using 6 animals per a concentration (total three different concentrations), and calculated by Litchfield and Wicoxon log-probit method which is a dose-response relationship.

[4] = test system: CFA-induced pain model in rats; experiment: Antiallodynic activity on Complete Freund's Adjuvant (CFA)-induced inflammatory pain model; assay type: in vivo, Sprague-Dawley rats; details: intraperitoneally
Experimental: Male, Sprague-Dawley rats (210-250 g, Nara Bio, Korea) were habituated for 1 week before surgery and allowed free access to food and water throughout the experimentation. Room temperature and humidity were maintained at 24±2 and 50±10%, respectively.
CFA-induced inflammatory pain was induced by the procedure of Nagakura et al. (2003) and Gregory P. et al. (2010) with minor modifications. CFA (sigma, USA) was injected in the right plantar with a 100 ul volume under gaseous anesthesia with isoflurane. Sham controls were injected with 100 ul of saline, and preparation of the vehicle controls were identical to the group treated with compound, except for administration of vehicles without indentical to the vihecle control group.
Tactile sensitivity (Mechanical allodynia) was evaluated using von Frey monofilaments before and after treatment, and animals were include in the study only if the withdrawal threshold value was less than 4 g. One week after CFA injection, CFA-infused animals, sham-operated animal, and vehicle-operated animals were tested for tactile sensitivity with von Frey monofilaments, with 3 trials for each animal. All Animals were placed in a stainless steel mashe chamber and habituated for 30 min in the test cage. The tactile sensitivity for ipsilateral hind paw was measured using the up-and-down method (Dixon, 1980) with seven von Frey monofilaments (0.4, 1, 2, 4, 6, 8, and 15 g) to 3 trials. The tactile sensitivity test was followed by Dixon's method (Dixon, 1980). The 50% paw withdrawal threshold for each paw was calculated using the following formula: [Xth]log=[vFr]log+ky where [vFr] is the force of the last von Frey used, k=0.2249 which is the average interval (in log units) between the von Frey monofilaments, and y is a value that depends upon the pattern of withdrawal responses (Dixon, 1980).
Antiallodynic effect of compounds was evaluated at the dose of 50 mg/kg (n=4-6), intraperitoneally administrated in a volume of 5 ul/g bw in a vehicle of 30% (v/v) PEG or 20% (v/v) Tween 80. The test was performed peak time of efficacy (0.5 hr) after compound administration.
The relative values compared to the sham (% control) were calculated and shown in Table 5, which show an antiallodynic effect of Compound 1 on CFA-induced pain model in rats.

[5] = test system: Lithium-pilocarpine induced seizure in rats; experiment: Lithium-pilocarpine induced epilepsy test (LI-PILO), prevention test; assay type: in vivo, Sprague-Dawley rats; details: i.p.
Experimental: Male Sprague-Dawley rats (purchased from Orient Bio Inc. Korea) of body weight 175 grams were used for these studies and 3 rats per cage were housed for 4-5 days. On the day prior to SE, rats received 127 mg/kg lithium chloride (Sigma, St. Louis, Mo., U.S.A.) intraperitoneally (i.p.). Approximately 18-20 h following this treatment, rats were given an i.p. injection of the concentration capable of inducing 97% intermittent convulsions pilocarpine(Sigma, 30-43 mg/kg). An i.p. injection of 2 mg/kg methyl-scopolamine (Sigma) was administered 30 min prior to pilocarpine to block the effects of the muscarinic agonist on peripheral cholinergic receptors. Test drugs were dissolved in 20% tween80 (Sigma).
The drugs were administered intraperitoneally (i.p.) in a volume of 2 μl/g body weight. Pharmacological effects of all of the test materials were evaluated to compare test groups (n=6) with a control group (n=6). Control group was administered vehicle only. The efficacy was measured 0.5, 1, 2, or 4 hours after the administration of the test material. The time point that the most animals were protected was defined as peak time and the ED50 was determined at peak time. The animals were then transferred to observation cages and observed continuously for 90 min Seizure was elicited in approximately 95% of the control group. Protection was defined as complete absence of seizure grade 3-5 (Racine scale; Racine, 1972) over the 90-min observation period. The effective dose of the compound necessary to protect 50% of the animals against seizures compared to controls (i.e., ED50) was determined by a curve fitting program (Excel 2007, Microsoft).

[6] = test system: Picrotoxin (PIC)-induced clonic seizure in mice; experiment: Chemical induced seizure model (PIC); assay type: in vivo, ICR mice
Experimental: Picrotoxin (PIC) were used to induce the behavioral seizures in the experiments. Male ICR mice (purchased from Orient Bio Inc. Korea) of body weight 19-26 g (mice) were used for these studies. The test materials were administered intraperitoneal (ip) route in a volume of 10 ul/g (mice) weight in rats or mice, respectively. Pharmacological effects of the test materials were evaluated to compared test groups (n=6) with a control group (n=6). Control group was administrated vehicle, only. The peak time was determined by administration of test material's random dose for 0.5, 1, 2, 4 hour. The time that the most protect was defined as a peak time and ED50 was determined by other dose administration at the peak time. Chemical (PIC) was dissolved in 0.9% saline and administered subcutaneously (s.c.) at its CD97 (convulsive dose 97%), the dose of Chemical (PIC) that produced clonic seizures in 97% into a loose fold of skin in the midline of the neck in a volume of 10 ul/g (mice) body weight. The animals were then transferred to observation cages and observed continuously for 45 min. Clonic seizure was elicited in approximately 97% of control group. Protection was defined as a complete absence of clonic seizure over the 45-min observation period. The effective dose of compound necessary to protect against generalized convulsive seizures to 50% of controls (i.e., ED50) was determined by log probit analysis using SPSS software program (SPSS Inc.). (Reference; White H. S., J. H. Woodhead, K. S. Wilcox, J. P. Stables, H. J. Kupferberg, and H. H. Wolf. General Principles; Discovery and Preclinical Development of Antiepileptic Drugs. In: R. H. Levy, R. H. Mattson, B. S. Meldrum, and E. Perucca, eds. Antiepileptic Drugs, 5th Ed. Lippincott Williams & Wilkins, Philadelphia 2002: pp. 36-48.) The obtained results are shown in following Table 10.

[7] = test system: PTZ (Pentylenetetrazol)-induced clonic seizure in rats; experiment: Anti-epilepsy activity, scPTZ test in rats; assay type: in vivo, SD rats
Source text: as §2

[8] = test system: acetic acid-induced writhes in ICR mice; experiment: Writhing test (acetic acid); assay type: in vivo; details: po
Experimental: To examine the pain relief effect of the carbamate compounds, a writhing test was conducted, referring to Fischer, L. G. et al. (2008).
(§3) ICR mice (male, 24-28g; Orient Bio, Korea) were habituated before test (in test room) for 1 hour. Animals were fasted 2 hr before administration of compounds. Each of compounds was orally administered at the three dose, 10 ul/g, bw (n=3-5/group). All compounds were dissolved in a vehicle of 30% (v/v) PEG 400 or 20% (v/v) Tween 80. The control group was treated the vehicle without compounds.
0.2-2 hour after the administration of compounds, 0.6% acetic acid at the dose of 10 ul/g by bodyweight was injected into the mice Animals were habituated in the cage for 5 min. 5 min after habituation, the number of writhes (abdominal constriction) was counted for 15 min, referring to Korzeniewska-Rybicka, I. et al. (1998) and compared with that of a control.
The relative values compared to the control (% control) were calculated and shown in […]

ICR mice on hot plate = experiment: Hot-plate test; assay type: in vivo; details: orally
Experimental: To examine the pain relief effect of the carbamate compounds, a hot-plate test was conducted in referring to Current Protocols in Neuroscience; Behavioral Neuroscience Unit 8.9.
as §3, with “25-28 g;” for “24-28g;”, “Compounds were” for “Each of compounds was”, “by bodyweight (n=4-6/group).” for “bw (n=3-5/group).”
0.25-2.0 hr after the administration of compounds, the mice were put on a hot plate pre-heated to 55±1 (Hu, X. et al, 2008), and then, the withdrawal latency time was measured (cut-off time: 30 sec) until the point when each mouse was taking a paw off from the plate, shaking, licking a paw or hind leg, or jumping from the plate.

Row | Molecule | MES test (po) Peak time [1] [h] | MES test (po) Peak time [2] [h] | PTZ test (ip) Peak time [3] [h] | CFA model Peak Time [4] [h] | Lithium pilocarpine model (pre) peak time [5] [h] | PIC(ip) Peak Time [6] [h] | scPTZ test (ip) peak time [7] [h] | Writhing test Peak Time [8] [h] | Hot-plate test Peak Time (ICR mice on hot plate) [h]
1 | 8-chloro-1-hydroxy-1,2,3,4-tetrahydronaphthalen-2-yl carbamate (mixture of SR & RS) [Example 3] | 1 | 1 | 0.5 | 0.5 | – | – | – | – | –
2 | NC(=O)O[C@H]1CCc2cccc(Cl)c2[C@H]1O [Example 2, (1R, 2S)-8-chloro-1-hydroxy-1,2,3,4-tetrahydronaphthalen-2-yl carbamate] | 0.5 | 0.5 | 0.5 | 0.5 | 1 | 1 | 1 | – | –
3 | NC(=O)O[C@H]1CCc2cccc(Cl)c2[C@@H]1O [Example 5, (1S, 2S)-8-chloro-1-hydroxy-1,2,3,4-tetrahydronaphthalen-2-yl carbamate] | – | 2 | 2 | 0.5 | – | – | – | – | –
4 | NC(=O)O[C@H]1c2c(Cl)cccc2CC[C@H]1O [Example 18, (1S, 2R)-8-chloro-2-hydroxy-1,2,3,4-tetrahydronaphthalen-1-yl carbamate] | 1 | 1 | – | 0.5 | – | – | 0.5 | 0.5 | –
5 | NC(=O)O[C@@H]1Cc2cccc(Cl)c2[C@@H]1O [Example 51, (1S, 2R)-7-chloro-1-hydroxy-2,3-dihydro-1H-inden-2-yl carbamate] | 4 | 0.5 | – | 0.5 | – | – | 1 | – | –
6 | NC(=O)O[C@H]1Cc2cccc(Cl)c2[C@H]1O [Example 52, (1R, 2S)-7-chloro-1-hydroxy-2,3-dihydro-1H-inden-2-yl carbamate] | 2 | 0.5 | – | 0.5 | 0.5 | – | – | – | 0.5
7 | NC(=O)O[C@H]1Cc2cccc(Cl)c2[C@@H]1O [Example 54, (1S, 2S)-7-chloro-1-hydroxy-2,3-dihydro-1H-inden-2-yl carbamate] | 2 | 0.5 | – | – | 0.5 | – | – | – | –
8 | NC(=O)O[C@H]1c2c(Cl)cccc2C[C@H]1O [Example 63, (1S, 2R)-7-chloro-2-hydroxy-2,3-dihydro-1H-inden-1-yl carbamate] | 0.5 | 0.5 | – | 0.5 | – | – | 0.5 | – | –
9 | NC(=O)O[C@@H]1c2c(Cl)cccc2C[C@@H]1O [Example 64, (1R, 2S)-7-chloro-2-hydroxy-2,3-dihydro-1H-inden-1-yl carbamate] | 1 | 2 | – | 0.5 | 1 | – | 0.5 | – | –

— patent US11168052B2, “Carbamate derivative compounds, processes for preparing them and their uses” (BIO-PHARM SOLUTIONS CO., LTD., priority 2016, dated 2021)
